This experiment deals with FLAG-tagged SOSTDC1 stably overexpressed in SUM159 cells (UniProt Q6X4U4). Briefly: affinity purification with mass spectrometry; co-IP samples of SUM159-CTRL or SOSTDC1 and MDA-MB-231-CTRL or SOSTDC1 cells; Q Exactive, Maxquant.

Chains of the proteins cited; added tags and fusions are not shown. Residues count along the entry.
UniProt Q6X4U4, residues 24-206: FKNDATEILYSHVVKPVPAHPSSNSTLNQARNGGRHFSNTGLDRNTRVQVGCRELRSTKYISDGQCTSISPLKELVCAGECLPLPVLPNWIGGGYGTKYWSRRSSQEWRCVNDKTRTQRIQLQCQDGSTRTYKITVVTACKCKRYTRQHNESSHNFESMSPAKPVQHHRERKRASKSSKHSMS
UniProt O14646: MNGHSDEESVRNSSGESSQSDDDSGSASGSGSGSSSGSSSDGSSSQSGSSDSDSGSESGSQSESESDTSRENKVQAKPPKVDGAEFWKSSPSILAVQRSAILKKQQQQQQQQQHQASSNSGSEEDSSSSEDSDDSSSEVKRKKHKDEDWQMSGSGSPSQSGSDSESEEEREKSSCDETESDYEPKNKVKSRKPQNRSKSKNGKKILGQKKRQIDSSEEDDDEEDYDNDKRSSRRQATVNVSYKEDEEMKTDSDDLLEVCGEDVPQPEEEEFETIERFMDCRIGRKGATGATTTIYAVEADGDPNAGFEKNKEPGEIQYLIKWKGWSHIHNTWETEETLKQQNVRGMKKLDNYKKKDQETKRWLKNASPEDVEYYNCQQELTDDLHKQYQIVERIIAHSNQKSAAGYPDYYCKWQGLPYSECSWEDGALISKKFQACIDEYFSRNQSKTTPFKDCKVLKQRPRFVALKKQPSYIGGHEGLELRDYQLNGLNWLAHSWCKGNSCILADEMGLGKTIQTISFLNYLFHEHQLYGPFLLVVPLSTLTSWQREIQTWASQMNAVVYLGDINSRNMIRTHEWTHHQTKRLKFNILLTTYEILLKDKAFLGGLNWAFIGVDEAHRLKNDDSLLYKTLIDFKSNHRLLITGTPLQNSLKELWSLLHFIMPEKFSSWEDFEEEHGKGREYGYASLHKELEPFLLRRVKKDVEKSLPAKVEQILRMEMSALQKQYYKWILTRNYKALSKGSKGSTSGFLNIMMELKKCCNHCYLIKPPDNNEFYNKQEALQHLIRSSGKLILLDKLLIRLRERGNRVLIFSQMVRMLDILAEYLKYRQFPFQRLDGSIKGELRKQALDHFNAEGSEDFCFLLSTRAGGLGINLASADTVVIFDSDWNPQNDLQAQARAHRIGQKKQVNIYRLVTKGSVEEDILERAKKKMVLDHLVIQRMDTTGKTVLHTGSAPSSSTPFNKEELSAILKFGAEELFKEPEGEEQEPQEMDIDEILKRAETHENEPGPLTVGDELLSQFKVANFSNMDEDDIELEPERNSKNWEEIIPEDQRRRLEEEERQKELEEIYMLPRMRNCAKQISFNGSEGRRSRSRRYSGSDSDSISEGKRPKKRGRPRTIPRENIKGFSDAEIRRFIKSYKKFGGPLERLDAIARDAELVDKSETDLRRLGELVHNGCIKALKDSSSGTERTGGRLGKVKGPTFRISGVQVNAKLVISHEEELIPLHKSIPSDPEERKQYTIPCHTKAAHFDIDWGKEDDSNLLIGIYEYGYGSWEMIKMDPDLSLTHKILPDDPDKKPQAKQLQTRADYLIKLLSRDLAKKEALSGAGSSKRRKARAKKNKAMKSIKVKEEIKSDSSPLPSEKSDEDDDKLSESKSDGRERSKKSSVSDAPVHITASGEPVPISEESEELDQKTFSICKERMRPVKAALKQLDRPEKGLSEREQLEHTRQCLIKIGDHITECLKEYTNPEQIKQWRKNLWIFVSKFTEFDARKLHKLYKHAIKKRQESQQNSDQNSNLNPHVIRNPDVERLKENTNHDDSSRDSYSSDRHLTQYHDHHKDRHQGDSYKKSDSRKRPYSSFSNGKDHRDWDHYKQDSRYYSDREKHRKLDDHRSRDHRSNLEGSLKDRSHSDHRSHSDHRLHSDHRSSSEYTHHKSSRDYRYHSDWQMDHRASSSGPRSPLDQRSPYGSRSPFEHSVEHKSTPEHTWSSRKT

These are yes or no findings as the source states them, for the method shown. Binding seen in cells or lysates may run through a third protein. Here binding means that the protein was enriched with, or labelled near, the bait; the list need not be complete.

Consider “Endogenous CHD1 of SUM159 cells (from UniProt O14646 1-1710)”, for which the binding result was “binds”.

The record behind these values is PMC11304230.
